How the values were obtained:
Male Wistar rats [1] = experiment: Clinical-chemical serum parameters after 7-day treatment of rats; type: in vivo, rat; conditions: change vs control (=100%), 7 days intragastral
Description: (§1) Male Wistar rats having an average body weight of 322.5 g were kept under conventional conditions at a room temperature of 21±1° C., a relative atmospheric humidity of about 60% and a 12 hour day/night cycle. Prior to the start of the experiment, they where subjected to an acclimatization to those keeping conditions for 12 days.
(§2) Feeding was performed with the pelletized standard diet Altromin C 1000, Misch. Nr. 100 (Altrogge). The animals were given tap water ad libidum as drinking water.
1. […]
Parameters such as enzymes, glucose, lipids, electrolytes, creatinin, urea and protein are detected selectively, method-oriented, photometrically or ion-selectively using the analyzer Cobas Mira. […]
The following clinical-chemical metabolic measurement values were analyzed in a combined method-specific manner: Bilirubin, creatinin, urea, glutamate oxalacetate transaminase (GOT), glutamate pyruvate transaminase (GPT), gamma-glutamyl transferase (GGT), glucose, cholesterol, triglycerides, calcium, sodium, potassium, chloride and total protein. […]

Male Wistar rats [2] = experiment: Leucocyte/lymphocyte differentiation by flow cytometry after 7-day treatment of rats; type: in vivo, rat; conditions: change vs control (=100%), 7th day of treatment, peripheral blood
Description: as §1, §2
1. Coated tablet core granules, micronized with putamen ovi; 1 coated tablet core aar® os with 640 mg contains 440 mg of putamen ovi, micronized, corresponding to 160 mg of calcium; Dosage form: Putamen ovi, coated tablet core granules, 146 mg (≡100 mg of putamen ovi, micronized≈36.5 mg of Ca) is suspended in 2 ml of dist. water (POS), 0.5 ml (POS)≡9.125 mg of Ca (PO)/[…]
The suspension were freshly prepared immediately before the administration and homogeneously administered. […]
The lymphocyte differentiation was performed after specific monoclonal incubation by means of fluorescence-activated cell sorting (fluorescence measurement).
On the 7th day of treatment, there were analyzed quantitatively: […]
5 μl each of the antibodies is incubated with 50 μl of Na-EDTA-blood at room temperature in the dark for 20 min. […] The suspension is analyzed by means of the flow cytometer. […]

## NS(=O)(=O)c1cc(C(=O)O)c(NCc2ccco2)cc1Cl [FUR, Furosemide]
Male Wistar rats [1]
  SP (acid phosphatase): −9.1%
Male Wistar rats [2]
  polymorphs (polymorphonuclear granulocytes): +65.7%
